Our source for the T/C and survivor count values is PubChem BioAssay AID248 (DTP/NCI, 2004).

The list shows only some results of the screen, not a fair sample: it is rich in T/C values a quarter to a half above the control, in often repeated tests (any T/C) and in doses without a T/C. Other doses and runs of a compound stand elsewhere. T/C gives the treated animals as a percentage of the vehicle group. Some entries give survivors of the animals treated and no T/C: the source files T/C as zero there, which appears to mark a toxic dose or a test without result, not a measured value. Some survivor counts are full or nearly so, which does not show that the dose was tolerated: the source hardly ever lists a survival T/C far under the control, and the zero likely stands for such cases as well. Counts of survivors are from the toxicity check (mostly the fifth day) where no day follows; animals may have died later. Schedules are NCI's codes, taken here to give the interval after Q, in days (D) or hours (H), and the number of doses after X. Some schedule codes hold Z or #, which are not explained here. For survival time, this PubChem deposit counts one and a half times the control or more as active, and values a quarter to a half above the control carry no call in these data; other NCI protocols may use other cut-offs. Some doses were run more than once; their values stand side by side, smallest first. Some T/C values are followed by the survivors on the day toxicity was checked, most often the fifth; where none is given, no animal had died by that day.

The test system of this test is L1210 leukemia ip in BDF1 mice, survival T/C. Description: NCI In Vivo Anticancer Drug Screen. Data for tumor model L1210 Leukemia (intraperitoneal) in B6D2F1 (BDF1) mice. As to conditions: higher T/C = longer survival.

Take `Cc1[nH]ccc2c(C)c3nc4ccccc4c3cc12`: the T/C (T/C endpoint: mean survival time, dose: 10.0 mg/kg/injection, schedule: Q01DX Z (ip), vehicle: carboxymethylcellulose (CMC)) was 128 and 132 % of control; the T/C (T/C endpoint: mean survival time, dose: 18.0 mg/kg/injection, schedule: Q01DX Z (ip), vehicle: saline) was 130 % of control; the T/C (T/C endpoint: mean survival time, dose: 20.0 mg/kg/injection, schedule: Q01DX Z (ip), vehicle: carboxymethylcellulose (CMC)) was 138 % of control; the T/C (T/C endpoint: mean survival time, dose: 21.0 mg/kg/injection, schedule: Q01DX Z (ip), vehicle: carboxymethylcellulose (CMC)) was 135 % of control; the T/C (T/C endpoint: mean survival time, dose: 27.0 mg/kg/injection, schedule: Q01DX Z (ip), vehicle: saline) is 143 % of control; the T/C (T/C endpoint: mean survival time, dose: 42.0 mg/kg/injection, schedule: Q01DX Z (ip), vehicle: carboxymethylcellulose (CMC)) is 141 % of control. Besides, the T/C is, setting by setting: (T/C endpoint: mean survival time, dose: 45.0 mg/kg/injection, schedule: Q04DX003 (ip), vehicle: saline with Tween-80) 143 % of control; (T/C endpoint: mean survival time, dose: 60.0 mg/kg/injection, schedule: Q01DX Z (ip), vehicle: saline) 125 % of control; (T/C endpoint: mean survival time, dose: 66.0 mg/kg/injection, schedule: Q04DX003 (ip), vehicle: saline with Tween-80) 136 % of control; (T/C endpoint: mean survival time, dose: 84.0 mg/kg/injection, schedule: Q01DX Z (ip), vehicle: carboxymethylcellulose (CMC)) 141 % of control. Besides, the survivor count is listed as 6 of 6 (T/C endpoint: mean survival time, dose: 150.0 mg/kg/injection, schedule: Q01DX Z (ip), vehicle: saline) and 5 of 6 (T/C endpoint: mean survival time, dose: 225.0 mg/kg/injection, schedule: Q04DX003 (ip), vehicle: saline with Tween-80).
As to `CC1CCCCN1` (centres undefined), the survivor count was 6 of 6 (T/C endpoint: mean survival time, dose: 12.5 mg/kg/injection, schedule: Q01DX Z (ip), vehicle: saline); 6 of 6 (T/C endpoint: mean survival time, dose: 25.0 mg/kg/injection, schedule: Q01DX Z (ip), vehicle: saline); 6 of 6 (T/C endpoint: mean survival time, dose: 50.0 mg/kg/injection, schedule: Q01DX Z (ip), vehicle: saline); 6 of 6 (T/C endpoint: mean survival time, dose: 100.0 mg/kg/injection, schedule: Q01DX Z (ip), vehicle: saline).
`CNC(=N)c1ccc(NC(=N)c2ccc(NC(=O)c3ccc(C(=O)Nc4ccc(C(=N)Nc5ccc(C(=N)NC)cc5)cc4)cc3)cc2)cc1`: the T/C is 138 % of control (T/C endpoint: mean survival time, dose: 12.5 mg/kg/injection, schedule: Q01DX Z (ip), vehicle: carboxymethylcellulose (CMC)); 130 % of control (T/C endpoint: mean survival time, dose: 25.0 mg/kg/injection, schedule: Q01DX Z (ip), vehicle: carboxymethylcellulose (CMC)); 130 % of control (T/C endpoint: mean survival time, dose: 50.0 mg/kg/injection, schedule: Q01DX Z (ip), vehicle: carboxymethylcellulose (CMC)); 130 % of control (T/C endpoint: mean survival time, dose: 62.0 mg/kg/injection, schedule: Q01DX Z (ip), vehicle: carboxymethylcellulose (CMC)); 125 % of control (T/C endpoint: mean survival time, dose: 125.0 mg/kg/injection, schedule: Q01DX Z (ip), vehicle: carboxymethylcellulose (CMC)); 141 % of control (T/C endpoint: mean survival time, dose: 250.0 mg/kg/injection, schedule: Q01DX Z (ip), vehicle: carboxymethylcellulose (CMC)). Also, the T/C (T/C endpoint: mean survival time, dose: 300.0 mg/kg/injection, schedule: Q01DX Z (ip), vehicle: carboxymethylcellulose (CMC)) is 130 % of control. For the setting “T/C endpoint: mean survival time, dose: 500.0 mg/kg/injection, schedule: Q01DX Z (ip), vehicle: carboxymethylcellulose (CMC)”, the survivor count is recorded as 2 of 6.
Consider `CN(C)C(=S)[S][Pb]([c]1ccccc1)([c]1ccccc1)[c]1ccccc1`, for which the survivor count is 0 of 6 (T/C endpoint: mean survival time, dose: 100.0 mg/kg/injection, schedule: Q01DX001 (ip), vehicle: steroid suspending solution); 0 of 6 (T/C endpoint: mean survival time, dose: 200.0 mg/kg/injection, schedule: Q01DX001 (ip), vehicle: steroid suspending solution); 0 of 6 (T/C endpoint: mean survival time, dose: 400.0 mg/kg/injection, schedule: Q01DX001 (ip), vehicle: steroid suspending solution).
`Cc1ccc2c(c1)N(CCCN1CC[N+](C)(C)CC1)c1ccccc1S2`: the survivor count (T/C endpoint: mean survival time, dose: 100.0 mg/kg/injection, schedule: Q01DX001 (ip), vehicle: saline) is recorded as 0 of 4; the survivor count (T/C endpoint: mean survival time, dose: 200.0 mg/kg/injection, schedule: Q01DX001 (ip), vehicle: saline) was 0 of 4; the survivor count (T/C endpoint: mean survival time, dose: 400.0 mg/kg/injection, schedule: Q01DX001 (ip), vehicle: saline) is given as 0 of 4.
For the compound `Br[C](Br)(Br)[Hg][c]1ccccc1`, the survivor count is reported as 0 of 6 (T/C endpoint: mean survival time, dose: 50.0 mg/kg/injection, schedule: Q04DX003 (ip), vehicle: Klucel (hydroxypropylcellulose) (HPC)); 2 of 6 (T/C endpoint: mean survival time, dose: 100.0 mg/kg/injection, schedule: Q04DX003 (ip), vehicle: Klucel (hydroxypropylcellulose) (HPC)); 4 of 6 (T/C endpoint: mean survival time, dose: 200.0 mg/kg/injection, schedule: Q04DX003 (ip), vehicle: Klucel (hydroxypropylcellulose) (HPC)); 2 of 6 (T/C endpoint: mean survival time, dose: 400.0 mg/kg/injection, schedule: Q04DX003 (ip), vehicle: Klucel (hydroxypropylcellulose) (HPC)).
Regarding `O=C(ON=C(c1ccc(Cl)cc1)c1ccc(Cl)cc1)c1ccc(Cl)cc1`, the T/C by setting is: (T/C endpoint: median survival time, dose: 108.0 mg/kg/injection, schedule: Q01DX009 (ip), vehicle: Klucel (hydroxypropylcellulose) (HPC), evaluated on day 5) 138 % of control; (T/C endpoint: median survival time, dose: 108.0 mg/kg/injection, schedule: Q01DX009 (ip), vehicle: Klucel (hydroxypropylcellulose) (HPC), evaluated on day 19) 138 % of control; (T/C endpoint: median survival time, dose: 180.0 mg/kg/injection, schedule: Q01DX009 (ip), vehicle: Klucel (hydroxypropylcellulose) (HPC), evaluated on day 5) 127 % of control; (T/C endpoint: median survival time, dose: 180.0 mg/kg/injection, schedule: Q01DX009 (ip), vehicle: Klucel (hydroxypropylcellulose) (HPC), evaluated on day 19) 127 % of control [7 of 8 alive]. Besides, the survivor count (T/C endpoint: median survival time, dose: 833.0 mg/kg/injection, schedule: Q01DX009 (ip), vehicle: Klucel (hydroxypropylcellulose) (HPC)) was 5 of 8.
For `CCC(=O)c1ccc2c(c1)N(CCCN1CCN(CCO)CC1)c1ccccc1S2`, the survivor count is, setting by setting: (T/C endpoint: mean survival time, dose: 12.5 mg/kg/injection, schedule: Q01DX009 (ip), vehicle: saline) 5 of 6; (T/C endpoint: mean survival time, dose: 12.5 mg/kg/injection, schedule: Q03HX024 (ip), vehicle: saline) 4 of 6; (T/C endpoint: mean survival time, dose: 16.0 mg/kg/injection, schedule: Q01DX009 (ip), vehicle: saline) 6 of 6; (T/C endpoint: mean survival time, dose: 25.0 mg/kg/injection, schedule: Q01DX009 (ip), vehicle: saline) 5 of 6; (T/C endpoint: mean survival time, dose: 25.0 mg/kg/injection, schedule: Q03HX024 (ip), vehicle: saline) 2 of 6; (T/C endpoint: mean survival time, dose: 50.0 mg/kg/injection, schedule: Q01DX009 (ip), vehicle: saline) 4 of 6. Besides, the survivor count (T/C endpoint: mean survival time, dose: 64.0 mg/kg/injection, schedule: Q01DX009 (ip), vehicle: saline) is 3 of 6; the survivor count (T/C endpoint: mean survival time, dose: 100.0 mg/kg/injection, schedule: Q01DX009 (ip), vehicle: saline) was 0 of 6; the survivor count (T/C endpoint: mean survival time, dose: 150.0 mg/kg/injection, schedule: Q01DX001 (ip), vehicle: saline) is reported as 1 of 6; the survivor count (T/C endpoint: mean survival time, dose: 300.0 mg/kg/injection, schedule: Q01DX001 (ip), vehicle: saline) is 0 of 6.
